Consider 63 compounds from PubChem BioAssay AID2685 (National Center for Advancing Translational Sciences (NCATS), 2010).

This is one part of the list. These are further read-outs of the screen, such as a control signal, another cell line or another target. No call is given for them. Most of these compounds were active or inconclusive in the main read-out, so they are no random draw. The note in brackets gives the kind of curve behind each potency; many fits are weak.

The nature of the assay: qHTS Assay for Lipid Storage Modulators in Drosophila S3 Cells.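 As to cell number change: cells counted by Cell Tracker Red CMTPX staining in the red channel.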 To be noted: BODIPY lipid droplet fluorescence, 18-24 h; for cell number change: measured here: cell count max response, cells fed with added oleic acid. The procedure, abridged:
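Laser-scanning cytometry quantifies lipid droplet accumulation (500–530 nm total intensity; droplet/cell object ratio) in oleic acid-fed (400 uM added) Drosophila S3 cells treated with a concentration series. 20 uM Triacsin C defined 100% inhibition.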
Background: In qHTS, concentration-response curves come from the screen itself.

Setting [1] is: measured here: lipid fluorescence (Fed channel) AC50, cells fed with added oleic acid.
Setting [2] is: measured here: cell number channel AC50, cells fed with added oleic acid.

Broadly, the AC50 is the concentration at which the activity in the assay is half-maximal. The low end stands for greater potency, the high end for weaker potency. `COc1ccc(N2CCN(C(=O)CCNC(=O)c3ccc(C(C)(C)C)cc3)CC2)cc1`: under setting [1], the concentration at half-maximal activity (AC50) is 6.51 µM [falling, partial curve, poor fit].

For `COCCNC(=O)c1ccccc1-c1nc(-c2ccccc2Cl)no1`, the cell number change worked out at 27.6%. Further, under setting [1], the AC50 is 0.116 µM [rising, full curve, poor fit].

For `CC(C)n1c(N2CCN(C(=O)N3CCCCC3)CC2)nc2ccccc21`, the cell number change is -23.8%. The AC50 under setting [1] was 20.6 µM [falling, partial curve, poor fit].

On to `C#CC1(O)CC(C)N(C)C(C)C1` (centres undefined), for which the cell number change is -50%. For the same compound, the half-maximal activity concentration (AC50) under setting [2] is 6.51 µM [falling, full curve]. Further, the AC50 under setting [1] was 2.59 µM [falling, full curve].

On to `Nn1c(SCC(=O)NC2CCCCC2)nnc1C1CC1`, for which the cell number change worked out at 129%.

Turning to `O=C(COC(=O)C1=COCCO1)Nc1ccc(Oc2ccccc2)cc1`, the AC50 under setting [1] was 0.651 µM [falling, single point].

Consider `CCC1SC(=Nc2cccc(C)c2)NC1=O` (centres undefined), for which the cell number change came out at 19%. Besides, the AC50 under setting [1] is 6.51 µM [falling, single point].

`COc1ccc(NC(=O)[C@@H](NC(=O)c2ccccc2F)C(C)C)cc1S(=O)(=O)N1CCOCC1`: the cell number change worked out at 64.4%. For the same compound, the AC50 under setting [1] was 29.1 µM [rising, single point].

Turning to `COc1ccc(N2CC(NS(=O)(=O)c3ccc4ccccc4c3)CC2=O)cc1OC` (centres undefined), the cell number change is 56.1%. In addition, the AC50 under setting [2] is 9.2 µM [rising, partial curve]. Moreover, under setting [1], the half-maximal activity concentration (AC50) is 18.4 µM [rising, partial curve].

For `CC1CCN(CC(=O)Nc2ccc(Br)cc2[N+](=O)[O-])CC1`, the cell number change amounted to 49.2%.

For `CCOc1cc2c(C#N)c(N3CCNCC3)nc(N)c2c(N)n1`, the cell number change was -11.6%.

In the case of `CC(NC(=O)c1cccc2ccccc12)c1ccc2c(c1)CCCC2` (centres undefined), the cell number change was -13.4%. The AC50 under setting [1] is 13 µM [falling, partial curve, poor fit].

As to `CN(CCCC(=O)NCc1ccco1)S(=O)(=O)c1ccccc1`, the cell number change was determined as 7.81%.

`Cc1cc(C(=O)COc2ccc(F)cc2Br)c(C)n1C1CC1`: the cell number change was found to be 111%. Besides, the concentration at half-maximal activity (AC50) under setting [2] was 16.4 µM [rising, partial curve].

Turning to `O=C(O)c1ccc(NC(=O)c2cn(-c3ccccc3)nc2-c2ccccc2)cc1`, the cell number change is 90.1%.

Regarding `C=CCN1C(=O)c2ccc(C(=O)N3CCN(S(=O)(=O)c4ccccc4Br)CC3)cc2C1=O`, the cell number change is -31.6%. Moreover, the concentration at half-maximal activity (AC50) under setting [2] was 20.6 µM [falling, single point]. Further, the AC50 under setting [1] is 23.1 µM [falling, single point].

For the compound `CCC1(C(=O)c2ccc(Cl)cc2)C2c3ccccc3OC(=O)C21C(=O)Nc1ccccc1` (centres undefined), the cell number change was -43.6%. Under setting [2], the AC50 is 25.9 µM [falling, partial curve]. Further, under setting [1], the AC50 is 11.6 µM [falling, partial curve, poor fit].

For the compound `Cc1ccc(S(=O)(=O)N2CCC(C(=O)Nc3ccncc3)CC2)cc1`, the cell number change is -36.7%. The AC50 under setting [2] was 6.51 µM [falling, partial curve].

For `Cc1ccc(/C=C(/C#N)C(=O)NC(C)c2ccccc2)o1` (centres undefined), the cell number change was found to be 6.51%. Also, under setting [1], the concentration at half-maximal activity (AC50) was 0.92 µM [rising, full curve, poor fit].

On to `Cc1ccc(S(=O)(=O)N(C)Cc2ccccc2)cc1C(=O)N1CCCCC1`, for which the cell number change was -27.4%. Besides, the concentration at half-maximal activity (AC50) under setting [1] was 20.6 µM [falling, single point].

With `CCN(Cc1ccc(OC)c(F)c1)C(=O)c1oc2ccccc2c1COC`, the cell number change came to 14.1%. The AC50 under setting [1] is 29.1 µM [falling, single point].

As to `Cc1ccc(S(=O)(=O)Nc2c(C)nc3nc(C)[nH]n3c2=O)c(C)c1`, the cell number change was -11.9%. Besides, under setting [1], the concentration at half-maximal activity (AC50) was 8.2 µM [falling, single point].

As for `CC(C)Cc1cc(C(=O)Nc2cc(C(F)(F)F)ccc2Cl)no1`, the cell number change was 28%. In addition, the AC50 under setting [1] was 0.103 µM [rising, full curve, poor fit].

Take `CCOC(=O)c1oc2ccccc2c1NC(=O)c1cccc(OC)c1`: the cell number change was -23.8%.

For `Cc1ccc(SCCC(=O)NCCSCc2ccco2)cc1`, the cell number change amounted to 4.13%. Also, under setting [1], the half-maximal activity concentration (AC50) is 0.794 µM [falling, full curve].

Take `O=C(CSc1nnc(C2CC2)n1Cc1ccccc1)c1cc2ccccc2o1`: the cell number change amounted to 16.6%. In addition, under setting [2], the AC50 was 0.00461 µM [falling, full curve, poor fit]. Besides, under setting [1], the half-maximal activity concentration (AC50) was 1.46 µM [rising, full curve].

For the compound `COc1ccc(OC)c(NC(=O)Nc2cccnc2)c1`, the cell number change was 5.49%.

`O=C(O)C1CSC(c2ccccc2Cl)N1C(=O)c1ccc(Cl)cc1` (centres undefined): the cell number change worked out at 5.06%. In addition, the AC50 under setting [1] was 29.1 µM [falling, single point].

Consider `COc1ccc2c(c1)CCCN2S(=O)(=O)c1ccc(Cl)cc1`, for which the cell number change is -36.5%. Further, under setting [2], the AC50 was 32.6 µM [falling, single point]. Moreover, the half-maximal activity concentration (AC50) under setting [1] was 10.3 µM [falling, partial curve].

Regarding `Cc1ccc(C(=O)OCn2ncc(Cl)c(Cl)c2=O)cc1`, the cell number change is -26.4%. Besides, the half-maximal activity concentration (AC50) under setting [1] is 6.51 µM [falling, single point].

Regarding `CN(C)S(=O)(=O)c1ccc(N2CCCC2)c(C(=O)Nc2nc3ccc(F)cc3s2)c1`, the cell number change came to 41.1%. Also, the concentration at half-maximal activity (AC50) under setting [2] was 14.6 µM [rising, single point].

Consider `Cc1ccc(C)c(NS(=O)(=O)c2ccccc2C)c1`, for which the cell number change was -32.3%. In addition, the concentration at half-maximal activity (AC50) under setting [2] was 9.2 µM [falling, partial curve, poor fit].

In the case of `COC(=O)c1ccc(OC)c(CSc2nnc(COc3cccc(C)c3)o2)c1`, the cell number change was found to be 21.3%.

In the case of `CCCCCCn1c(-c2cccs2)n[nH]c1=S`, the concentration at half-maximal activity (AC50) is 0.651 µM [rising, single point] under setting [2] and 4.11 µM [rising, single point] under setting [1].

In the case of `CN1C(C(=O)NCc2ccccc2)CC2Cn3c(nc4cc5ccccc5cc43)C21` (centres undefined), the cell number change was 11.7%. In addition, the concentration at half-maximal activity (AC50) under setting [1] was 8.2 µM [rising, partial curve, poor fit].

On to `CC(=O)N1CCc2cc(S(=O)(=O)CCC(=O)N3CCN(c4ccccc4F)CC3)ccc21`, for which the cell number change is -21.6%.

In the case of `O=C(CN1CCN(Cc2ccccc2)CC1)Nc1cccc(Br)c1`, the cell number change worked out at 33.3%. The AC50 under setting [2] was 32.6 µM [rising, single point]. In addition, the AC50 under setting [1] was 1.64 µM [rising, partial curve].

As for `O=C1NC(=Nc2ccc(Cl)cc2)SC1Cc1cc(Cl)ccc1Cl` (centres undefined), the cell number change stood at 23.4%. In addition, the AC50 under setting [1] is 29.1 µM [rising, single point].

`CN(C)S(=O)(=O)c1ccc(NC(=S)NC(=O)C2CCC2)cc1`: the cell number change was -10.3%. In addition, the AC50 under setting [1] is 0.631 µM [rising, single point].

With `Cc1cc(NC(=O)c2cccc(F)c2)ncc1NC(=O)c1ccco1`, the cell number change stood at 7.55%. Also, under setting [2], the AC50 is 6.51 µM [rising, single point]. The concentration at half-maximal activity (AC50) under setting [1] was 2.06 µM [rising, full curve].

`COC(=O)c1cccc(NC(=O)c2ccc3c(c2)C(=O)N(C(C)(C)C)C3=O)c1`: the cell number change is -36.1%. The concentration at half-maximal activity (AC50) under setting [2] was 11.6 µM [falling, partial curve]. For the same compound, the AC50 under setting [1] is 6.51 µM [falling, single point].

For `CCOC(=O)c1ccc(NC(=O)c2ccccc2C)cc1`, the cell number change stood at 2.3%. The half-maximal activity concentration (AC50) under setting [1] was 23.1 µM [rising, single point].

With `CC(OC(=O)C1CC1C)C(=O)Nc1ncc(Cl)cc1Cl` (centres undefined), the cell number change was determined as 17.8%.

As for `C/C(O)=C(/N=O)C(=O)Nc1ccccc1`, the cell number change amounted to 144%. For the same compound, the half-maximal activity concentration (AC50) under setting [2] was 14.6 µM [rising, partial curve].

`Cc1csc(N/N=C/c2ccc(O)c([N+](=O)[O-])c2)n1`: the cell number change is -103%. For the same compound, the concentration at half-maximal activity (AC50) under setting [2] was 7.31 µM [falling, partial curve]. Moreover, the half-maximal activity concentration (AC50) under setting [1] was 6.51 µM [falling, partial curve].

For the compound `CCCC(O)(CCC)C(=O)NN(C(=O)CCl)c1cccc(C)c1`, the AC50 under setting [1] is 23.1 µM [falling, single point].

For `CCOc1ccc(NC(=O)CSc2nnc(Cc3cccn3C)n2-c2ccc(F)cc2)cc1`, the cell number change was -3.97%.

In the case of `Cc1ccc(NC(=S)NCCSc2ccc(Cl)cc2)c(C)c1`, the cell number change was found to be 4%. Moreover, the AC50 under setting [1] was 5.17 µM [rising, single point].

With `CC(=O)c1csc(-c2ccccc2)n1`, the cell number change was -34.5%. For the same compound, under setting [1], the concentration at half-maximal activity (AC50) was 0.082 µM [falling, partial curve, poor fit].

Regarding `C=CCOc1cccc(NC(=O)c2ccccc2SC)c1`, the cell number change came to 19.1%. Besides, under setting [1], the AC50 was 1.3 µM [falling, single point].

For `CC(C)N1CCC2(CC1)N=C(c1ccc3c(c1)OCO3)CC(c1cc(Cl)ccc1O)N2` (centres undefined), under setting [1], the AC50 was 4.11 µM [rising, full curve].

Take `O=C(CSc1nc(=O)n(CCN2CCOCC2)c2c1CCCC2)Nc1cccc([N+](=O)[O-])c1`: the cell number change came out at 1.53%. The concentration at half-maximal activity (AC50) under setting [1] was 5.8 µM [falling, full curve, poor fit].

With `Cc1cc2oc(C(=O)NCc3ccccc3)cc(=O)c2cc1C`, the cell number change is 10.3%. For the same compound, the AC50 under setting [1] is 6.51 µM [falling, single point].

For the compound `CCOc1ccc(-c2nc(-c3ccc(OC)c(OC)c3)no2)cc1OCC`, the cell number change was -162%.

Turning to `CCc1csc(CCNC(=O)C2CCC(=O)N(CCOC)C2)n1` (centres undefined), the cell number change was found to be 15.3%. Further, under setting [1], the AC50 was 7.31 µM [rising, partial curve].

`COc1ccccc1C(=O)Nc1cccc(S(=O)(=O)N2CCCC2)c1`: the cell number change is -4.09%. In addition, the AC50 under setting [1] was 0.0731 µM [rising, full curve, poor fit].

Regarding `O=C(Nc1ccc(F)cc1)OCCN1CCN(Cc2ccccc2)CCC1=O`, the cell number change was 28.9%. For the same compound, the half-maximal activity concentration (AC50) under setting [1] was 29.1 µM [rising, single point].

`Cc1ccsc1/C=C1\Oc2cc(OCC(=O)c3ccccc3)ccc2C1=O`: the cell number change is -15.7%. Further, the concentration at half-maximal activity (AC50) under setting [1] is 0.58 µM [rising, full curve].

As to `Cc1ccccc1C(C(=O)NC1CCCCC1)N(C(=O)CNC(=O)c1ccco1)c1cccnc1` (centres undefined), the cell number change was -0.499%.

Consider `COc1ccc(C(=O)CCC(=O)Nc2cccnc2)cc1OC`, for which the cell number change was 5.88%. The concentration at half-maximal activity (AC50) under setting [1] was 29.1 µM [rising, single point].

Turning to `COc1ccc(C(=O)CCNc2ccc(C)c(Cl)c2)cc1`, the cell number change is 9.4%. Moreover, the concentration at half-maximal activity (AC50) under setting [1] is 16.4 µM [rising, partial curve].

Consider `CCN(CC(=O)NC)S(=O)(=O)c1ccc(C)cc1`, for which the cell number change was -0.135%. Besides, under setting [1], the AC50 is 0.164 µM [falling, full curve, poor fit].

In the case of `Cc1ccc(C)c(SCC(=O)OCC(=O)NCCNC(=O)COC(=O)CSc2cc(C)ccc2C)c1`, the cell number change is -26.1%. In addition, the half-maximal activity concentration (AC50) under setting [2] is 1.84 µM [falling, full curve, poor fit].
